Source: paper PMC7801380, “Development of phenotypic assays for identifying novel blockers of L-type calcium channels in neurons” (Scientific Reports, 2021)

Tests used:
[1] = molecular target: Phenylalkylamine site; assay: Rat cortex binding, phenylalkylamine site ([3H]D888); conditions: rat cortical homogenates; [3H]D888 3 nM
Description: (§1) The in-vitro binding studies were conducted by Eurofins (France) using rat cortex. […] The IC50 values (the concentration that causes half-maximal inhibition of control specific binding) were determined by non-linear regression analysis of the competition curves using Hill equation: Y = […] Y = specific binding, A = left asymptote of the curve, D = right asymptote of the curve, C = compound concentration, and nH = slope factor. Analyses were performed using software developed at Eurofins (Hill software) and validated by comparison with data generated by the commercial software SigmaPlot 4.0. […] KD values were determined from Scatchard plots.

[2] = molecular target: Benzothiazepine site; assay: Rat cortex binding, benzothiazepine site ([3H]diltiazem); conditions: rat cortical homogenates; [3H]diltiazem 15 nM
Description: as §1

[3] = molecular target: DHP site; assay: Rat cortex binding, DHP site ([3H]nitrendipine); conditions: rat cortical homogenates; [3H]nitrendipine 0.1 nM
Description: as §1

[4] = test system: L-type calcium channels (LTCCs); assay: Calcium flux (FLIPR) assay, Bay K8644-induced responses in rat primary cortical cultures; format: cell-based; conditions: PW library screen hit confirmation; 1.1 µM Bay K8644; holding [K+] 20 mM; read-out: FLIPR IC50 Rat cortical culture

| Ki [1] | Ki [2] | Ki [3] | IC50 [4] | Compound |
| --- | --- | --- | --- | --- |
| 3.3 µM | 2.28 µM | 3.56 µM | 0.138 µM | CN1CCC(=C2c3ccccc3C=Cc3ccccc32)CC1 [Cyproheptadine] |
|  |  |  | 1.01 µM | CN(C)CCCN1c2ccccc2CCc2ccc(Cl)cc21 [clomipramine] |
